Source: US20210261642A1, “SOLUBILITY OF GLP-1 PEPTIDE” (Novo Nordisk A/S, priority 2017, published 2021)
The source gives many values for each of these; only a part stands here.

Assay: Assay (I): Determination of Solubility (96-well plate, pH 3.0-11.0, organic solvent 0-70% w/w, UV absorption at 280 nm)
Assay type: physicochemical
Settings: Method 1 (evaporation)
Description: Assay (I): Determination of Solubility
96-Well Plate Preparation
96-well plates containing target peptide in a solid form were prepared in one of two ways:
Method 1 (evaporation): Addition of 100 μl stock solution of said peptide at a concentration of 4-6 mg/ml to each well of a 96-well half area plate (150 μl well size). Subsequently the solvent was evaporated by applying a vacuum until the solvent was completely removed.
Method 2 (precipitation): Addition of a certain volume of a stock solution of said peptide containing to each well of a 96-well half area plate followed by the addition of a certain volume of concentrated phosphoric acid to obtain a pH of 4.6 followed by addition of a certain volume of ethanol resulting in a final ethanol concentration of 20% v/v. Subsequently the plate was stored at 4° C. for 1 h and then centrifuged at 4,000 rpm for 20 min. Finally the supernatant was removed. The concentration of the stock solution was chosen in a way that the final amount of peptide after supernatant removal was >0.4 mg per well.
In both cases the stock solution was prepared by adding de-ionized water to a certain amount of powder of said peptide followed by a stepwise addition of small amounts of a concentrated sodium hydroxide solution until said peptide was completely in solution.
To determine solubility of a target peptide at different pH and organic solvent concentrations, two different buffer systems were used in independent experiments to cover the whole range from pH 3.0 to pH 11.0. Buffer system 1 covers pH 3.0-7.5 and buffer system 2 covers pH 7.5-11.0. For each buffer system 96 different solvent compositions were premixed in the following way: • 1. A low pH buffer (adjusted to either pH 3.0 or pH 7.5) and a high pH buffer (adjusted to either pH 7.5 or pH 11.0) were mixed at 8 different ratios to obtain values between pH 3.0 and pH 7.5 or pH 7.5 and pH 11.0, respectively. The total volume after mixing was 300 μl. • 2. 12 different amounts of organic solvent were then added to these buffers to obtain organic solvent (e.g. ethanol) concentrations between 0 and 70% w/w. • 3. Water was then added to obtain a total weight of 1.0 g of solvent in each well.
After preparing the 96 different solvent systems, 100 μl of each system was transferred to the 96-well plate containing the solid form of the target peptide (prepared as described in the section “96-well plate preparation”). The plate was then stored at a given temperature (between 5° C. and 70° C.) for a given time on a rotating shaker set to 400 rpm. At regular time intervals the plate was centrifuged (4,000 rpm for 10 min) and a 10 μl sample was taken from each well. The samples were then analysed by UV absorption at 280 nm for peptide quantification. Peptide concentration results are given as UV absorption at 280 nm of the sample subtracted UV absorption at 280 nm of a well comprising 10 μl water.
The buffers used were as follows: • Buffer system 1 (for the pH range from pH 3.0-7.5)
• Buffer system 2 (for the pH ranae from pH 7.5-11.0)
Solubility of liraglutide was determined using Assay (I) described herein. Liraglutide was prepared using Method 1 (evaporation) or Method 2 (precipitation) as described in subsection “96-well plate preparation”.

## CCCCCCCCCCCCCCCC(=O)N[C@@H](CCC(=O)NCCCC[C@H](NC(=O)[C@H](C)NC(=O)[C@H](C)NC(=O)[C@H](CCC(N)=O)NC(=O)CNC(=O)[C@H](CCC(=O)O)NC(=O)[C@H](CC(C)C)NC(=O)[C@H](Cc1ccc(O)cc1)NC(=O)[C@H](CO)NC(=O)[C@H](CO)NC(=O)[C@@H](NC(=O)[C@H](CC(=O)O)NC(=O)[C@H](CO)NC(=O)[C@@H](NC(=O)[C@H](Cc1ccccc1)NC(=O)[C@@H](NC(=O)CNC(=O)[C@H](CCC(=O)O)NC(=O)[C@H](C)NC(=O)[C@@H](N)Cc1cnc[nH]1)[C@@H](C)O)[C@@H](C)O)C(C)C)C(=O)N[C@@H](CCC(=O)O)C(=O)N[C@@H](Cc1ccccc1)C(=O)N[C@H](C(=O)N[C@@H](C)C(=O)N[C@@H](Cc1c[nH]c2ccccc12)C(=O)N[C@@H](CC(C)C)C(=O)N[C@H](C(=O)N[C@@H](CCCNC(=N)N)C(=O)NCC(=O)N[C@@H](CCCNC(=N)N)C(=O)NCC(=O)O)C(C)C)[C@@H](C)CC)C(=O)O [liraglutide, Arg34,Lys26-(N-epsilon-(gamma-L-glutamyl(N-alfa-hexadecanoyl)))-GLP-1(7-37)]
DMF 0.0% w/w, pH 3.1, RT
  Peptide concentration after 5 min: 0.2 mg/mL
  Peptide concentration after 180 min: 0.2 mg/mL
DMF 0.0% w/w, pH 4.8, RT
  Peptide concentration after 5 min: 0.2 mg/mL
  Peptide concentration after 180 min: 0.2 mg/mL
DMF 0.0% w/w, pH 5.8, RT
  Peptide concentration after 5 min: 0.2 mg/mL
  Peptide concentration after 180 min: 1.1 mg/mL
DMF 0.0% w/w, pH 6.3, RT
  Peptide concentration after 5 min: 0.9 mg/mL
  Peptide concentration after 180 min: 2.4 mg/mL
  Peptide concentration after 24 h: >4.0 mg/mL
DMF 0.0% w/w, pH 6.7, RT
  Peptide concentration after 5 min: 1.0 mg/mL
  Peptide concentration after 180 min: 3.1 mg/mL
DMF 0.0% w/w, pH 6.9, RT
  Peptide concentration after 5 min: 1.1 mg/mL
  Peptide concentration after 180 min: >4.0 mg/mL
  Peptide concentration after 24 h: >4.0 mg/mL
DMF 0.0% w/w, pH 7.2, RT
  Peptide concentration after 5 min: 0.7 mg/mL
  Peptide concentration after 180 min: >4.0 mg/mL
  Peptide concentration after 24 h: >4.0 mg/mL
DMF 0.0% w/w, pH 7.5, RT
  Peptide concentration after 5 min: 1.9 mg/mL
  Peptide concentration after 180 min: >4.0 mg/mL
DMF 0.0% w/w, pH 8.0, RT
  Peptide concentration after 5 min: 2.2 mg/mL
  Peptide concentration after 180 min: >4.0 mg/mL
DMF 0.0% w/w, pH 8.5, RT
  Peptide concentration after 5 min: 2.0 mg/mL
  Peptide concentration after 180 min: >4.0 mg/mL
DMF 0.0% w/w, pH 9.0, RT
  Peptide concentration after 5 min: 2.7 mg/mL
  Peptide concentration after 180 min: >4.0 mg/mL
DMF 0.0% w/w, pH 9.5, RT
  Peptide concentration after 5 min: 2.7 mg/mL
  Peptide concentration after 180 min: >4.0 mg/mL
DMF 0.0% w/w, pH 10.0, RT
  Peptide concentration after 5 min: 2.6 mg/mL
  Peptide concentration after 180 min: >4.0 mg/mL
DMF 0.0% w/w, pH 10.5, RT
  Peptide concentration after 5 min: 2.9 mg/mL
  Peptide concentration after 180 min: >4.0 mg/mL
DMF 0.0% w/w, pH 11.0, RT
  Peptide concentration after 5 min: 2.4 mg/mL
  Peptide concentration after 180 min: >4.0 mg/mL
DMF 6.4% w/w, pH 3.1, RT
  Peptide concentration after 5 min: 0.2 mg/mL
  Peptide concentration after 180 min: 0.3 mg/mL
  Peptide concentration after 24 h: 0.8 mg/mL
DMF 6.4% w/w, pH 4.8, RT
  Peptide concentration after 5 min: 0.2 mg/mL
  Peptide concentration after 180 min: 0.4 mg/mL
  Peptide concentration after 24 h: 0.2 mg/mL
DMF 6.4% w/w, pH 5.8, RT
  Peptide concentration after 5 min: 0.3 mg/mL
  Peptide concentration after 180 min: 2.9 mg/mL
  Peptide concentration after 24 h: 2.1 mg/mL
DMF 6.4% w/w, pH 6.3, RT
  Peptide concentration after 5 min: 0.9 mg/mL
  Peptide concentration after 180 min: 2.5 mg/mL
  Peptide concentration after 24 h: >4.0 mg/mL
DMF 6.4% w/w, pH 6.7, RT
  Peptide concentration after 5 min: 1.2 mg/mL
  Peptide concentration after 180 min: 2.5 mg/mL
  Peptide concentration after 24 h: >4.0 mg/mL
DMF 6.4% w/w, pH 6.9, RT
  Peptide concentration after 5 min: 1.1 mg/mL
  Peptide concentration after 180 min: 3.2 mg/mL
  Peptide concentration after 24 h: >4.0 mg/mL
DMF 6.4% w/w, pH 7.2, RT
  Peptide concentration after 5 min: 1.1 mg/mL
  Peptide concentration after 180 min: 3.0 mg/mL
  Peptide concentration after 24 h: >4.0 mg/mL
DMF 6.4% w/w, pH 7.5, RT
  Peptide concentration after 5 min: 1.8 mg/mL
  Peptide concentration after 180 min: >4.0 mg/mL
DMF 6.4% w/w, pH 8.0, RT
  Peptide concentration after 5 min: 1.6 mg/mL
  Peptide concentration after 180 min: >4.0 mg/mL
DMF 6.4% w/w, pH 8.5, RT
  Peptide concentration after 5 min: 2.1 mg/mL
  Peptide concentration after 180 min: >4.0 mg/mL
DMF 6.4% w/w, pH 9.0, RT
  Peptide concentration after 5 min: 2.0 mg/mL
  Peptide concentration after 180 min: >4.0 mg/mL
DMF 6.4% w/w, pH 9.5, RT
  Peptide concentration after 5 min: 2.2 mg/mL
  Peptide concentration after 180 min: >4.0 mg/mL
DMF 6.4% w/w, pH 10.0, RT
  Peptide concentration after 5 min: 2.3 mg/mL
  Peptide concentration after 180 min: >4.0 mg/mL
DMF 6.4% w/w, pH 10.5, RT
  Peptide concentration after 5 min: 2.4 mg/mL
  Peptide concentration after 180 min: >4.0 mg/mL
DMF 6.4% w/w, pH 11.0, RT
  Peptide concentration after 5 min: 1.9 mg/mL
  Peptide concentration after 180 min: >4.0 mg/mL
DMF 12.7% w/w, pH 3.1, RT
  Peptide concentration after 5 min: 0.2 mg/mL
  Peptide concentration after 180 min: 0.4 mg/mL
  Peptide concentration after 24 h: 1.2 mg/mL
DMF 12.7% w/w, pH 4.8, RT
  Peptide concentration after 5 min: 0.2 mg/mL
  Peptide concentration after 180 min: 0.5 mg/mL
  Peptide concentration after 24 h: 0.3 mg/mL
DMF 12.7% w/w, pH 5.8, RT
  Peptide concentration after 5 min: 0.3 mg/mL
  Peptide concentration after 180 min: 3.1 mg/mL
  Peptide concentration after 24 h: 2.3 mg/mL
DMF 12.7% w/w, pH 6.3, RT
  Peptide concentration after 5 min: 0.9 mg/mL
  Peptide concentration after 180 min: 2.3 mg/mL
  Peptide concentration after 24 h: >4.0 mg/mL
DMF 12.7% w/w, pH 6.7, RT
  Peptide concentration after 5 min: 1.0 mg/mL
  Peptide concentration after 180 min: 2.0 mg/mL
  Peptide concentration after 24 h: 3.9 mg/mL
DMF 12.7% w/w, pH 6.9, RT
  Peptide concentration after 5 min: 1.0 mg/mL
  Peptide concentration after 180 min: 3.0 mg/mL
  Peptide concentration after 24 h: >4.0 mg/mL
DMF 12.7% w/w, pH 7.2, RT
  Peptide concentration after 5 min: 0.9 mg/mL
  Peptide concentration after 180 min: 2.3 mg/mL
  Peptide concentration after 24 h: >4.0 mg/mL
DMF 12.7% w/w, pH 7.5, RT
  Peptide concentration after 5 min: 1.7 mg/mL
  Peptide concentration after 180 min: >4.0 mg/mL
DMF 12.7% w/w, pH 8.0, RT
  Peptide concentration after 5 min: 1.4 mg/mL
  Peptide concentration after 180 min: >4.0 mg/mL
DMF 12.7% w/w, pH 8.5, RT
  Peptide concentration after 5 min: 1.9 mg/mL
  Peptide concentration after 180 min: >4.0 mg/mL
DMF 12.7% w/w, pH 9.0, RT
  Peptide concentration after 5 min: 1.9 mg/mL
  Peptide concentration after 180 min: >4.0 mg/mL
